Data: PubChem BioAssay AID1671190 (National Center for Advancing Translational Sciences (NCATS), 2021)
Hit rate of the full screen: of about 580,000 compounds, about 6,100 (1.1%) were called active. Inconclusive means that the source gave no clear call. Such entries were picked first, then a sample of the others. Calls follow the shape of the dose curve; as a rule, active = well fitted inhibition curve with a large enough effect; inconclusive = small, poorly fitted or top-dose-only effect, or another doubt; inactive = no such curve, though single readings can be large or run the other way. Potencies beside an inconclusive call are fits to weak or partial responses and may not hold up.

The chains behind the UniProt entries cited, without tags or fusion partners. Where a name states a change or a piece, a line headed by the entry shows the natural chain unless it says otherwise.
UniProt P18054: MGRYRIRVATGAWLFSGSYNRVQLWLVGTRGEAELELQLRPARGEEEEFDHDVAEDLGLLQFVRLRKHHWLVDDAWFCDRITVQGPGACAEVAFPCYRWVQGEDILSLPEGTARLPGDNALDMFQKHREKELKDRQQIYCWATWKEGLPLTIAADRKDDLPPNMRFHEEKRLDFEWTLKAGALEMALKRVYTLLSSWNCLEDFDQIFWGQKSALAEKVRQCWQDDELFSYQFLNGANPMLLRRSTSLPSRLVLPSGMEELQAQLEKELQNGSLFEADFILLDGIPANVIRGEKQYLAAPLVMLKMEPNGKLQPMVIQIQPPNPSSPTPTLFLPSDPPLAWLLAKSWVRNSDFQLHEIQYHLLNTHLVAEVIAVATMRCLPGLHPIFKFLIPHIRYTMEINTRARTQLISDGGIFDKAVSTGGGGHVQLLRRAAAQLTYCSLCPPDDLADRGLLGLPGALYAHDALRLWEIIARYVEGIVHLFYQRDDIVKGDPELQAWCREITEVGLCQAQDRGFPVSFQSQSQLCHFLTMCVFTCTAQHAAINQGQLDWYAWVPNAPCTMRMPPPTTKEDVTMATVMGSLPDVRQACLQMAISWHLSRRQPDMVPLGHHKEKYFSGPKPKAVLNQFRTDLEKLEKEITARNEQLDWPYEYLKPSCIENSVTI

biological target: Polyunsaturated fatty acid lipoxygenase ALOX12 (Homo sapiens) (UniProt P18054); test: Primary qHTS assay for inhibitors of human arachidonate 12S-lipoxygenase (ALOX12): Round 2; settings: purified 12hLO, xylenol orange hydroperoxide absorbance; activity change, negative = inhibition: at 108 µM (top of the series) unless noted
Outline: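 Hydroperoxide product was detected by ferrous iron/xylenol orange as the 573 to 405 nm absorbance ratio. Arachidonic acid at 40 uM (final) was turned over for 30 min at room temperature by 150 nM human 12hLO, pH 7.0 Hepes buffer, after 15 min compound preincubation.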
% is scaled to controls: 0 for no effect and ±100 for the full control effect; potency is read from the fitted curve at half-maximal effect.

Row | Compound | Potency | activity change, negative = inhibition
1 | Cc1ccc(-c2ncn(-c3ccc(Nc4nccc(-c5cccc(N6CCOCC6)c5)n4)cc3)n2)cn1 | inactive | 
2 | CCOc1ccc2[nH]c(=O)c(CN(Cc3cccs3)Cc3nnnn3C(C)(C)C)cc2c1 | inactive | 
3 | Cc1ccc(C)n1NC(=O)c1ccc(Cl)cc1 | inconclusive: 14.1 µM [inhibitor, partial curve, poor fit] | 
4 | COCCN1C(=O)COCc2cc(-c3ccc(N(C)C)cc3)ccc21 | inconclusive: 44.7 µM [inhibitor, partial curve, poor fit] | 
5 | COc1ccc(OC)c(C2C(C(=O)c3cccs3)=C(O)C(=O)N2c2cc(C)on2)c1 (stereo unspecified) | inconclusive: 15.8 µM [inhibitor, partial curve, poor fit] | 
6 | COCCN1CCn2c(nc3cc(C(=O)NC(C)C)ccc32)C1 | inactive | 
7 | COc1ccccc1N1CCNC(C)C1=O (stereo unspecified) | inconclusive: 35.5 µM [inhibitor, partial curve, poor fit] | 
8 | CC(C)CCOP(=O)(c1ccc(N(C)C)cc1)C(Nc1ccccc1)c1ccc(N(C)C)cc1 (stereo unspecified) | inconclusive: 100 µM [inhibitor, single point] | 
9 | COc1ccc(NC(=O)CSc2nc3[nH]c(=O)[nH]c(=O)c3s2)cc1OC | inconclusive: 12.6 µM [inhibitor, partial curve, poor fit] | 
10 | COc1ccc2cc3cc(C(=O)Nc4ccccc4C)oc3nc2c1 | inconclusive: 100 µM [inhibitor, partial curve, poor fit] | 
11 | c1cncc(-c2nnc(-c3cccnc3)nn2)c1 | inconclusive: 44.7 µM [inhibitor, partial curve, poor fit] | 
12 | CCCCn1c(SCC(=O)c2ccccc2)nc2c1c(=O)[nH]c(=O)n2C | inconclusive: 44.7 µM [inhibitor, partial curve, poor fit] | 
13 | Cc1ccc(NC(=O)Nc2ccc3nc(N4CCN(C)CC4)cc(C)c3c2)cc1C | inconclusive: 56.2 µM [inhibitor, partial curve, poor fit] | 
14 | COc1ccc(C2CC(=O)Nc3c2c(=O)[nH]c2ncnn32)cc1OC (stereo unspecified) | inconclusive: 22.4 µM [inhibitor, single point] | 
15 | COc1ccc(OCC(=O)Nc2ccc3oc(-c4ccc5ccccc5c4)nc3c2)cc1 | inactive | 
16 | O=C(NC1CCN(C(=O)c2cc(C3CC3)nc3ccccc23)CC1)C1CC1 | inconclusive: 79.4 µM [inhibitor, single point] | 
17 | Cc1ccc(S(=O)(=O)Nc2ccc(NC(=O)c3c(F)c(F)c(F)c(F)c3F)cc2)cc1 | inconclusive: 50.1 µM [inhibitor, partial curve] | 
18 | CCNC(=O)c1noc(-c2cc(C(C)C)c(O)cc2O)c1-c1ccc(CN2CCOCC2)cc1 | inconclusive: 3.85 µM [inhibitor, full curve, poor fit] | 
19 | CC(C)c1ccc(NC(=O)C2CC(=O)NC(N3CCN(c4ccc(F)cc4)CC3)=N2)cc1 (stereo unspecified) | inactive | 
20 | CCOc1cc(/C=C(/C#N)C(=O)Nc2ccc(OC)cc2)ccc1OCc1ccc(C(=O)O)cc1 | inactive | 
21 | COc1ccc(Nc2nc(NCc3ccco3)nc(N/N=C/c3ccccc3F)n2)cc1 | inactive | 
22 | Cn1c(=O)c2c(ncn2CC(O)COCc2ccccc2)n(C)c1=O (stereo unspecified) | inactive | 

Look-ups from the results shown:
Value of COc1ccc(OCC(=O)Nc2ccc3oc(-c4ccc5ccccc5c4)nc3c2)cc1 under Potency: inactive
Value of COc1ccc2cc3cc(C(=O)Nc4ccccc4C)oc3nc2c1 under Potency: inconclusive: 100 µM [inhibitor, partial curve, poor fit]
Value of COc1ccc(NC(=O)CSc2nc3[nH]c(=O)[nH]c(=O)c3s2)cc1OC under Potency: inconclusive: 12.6 µM [inhibitor, partial curve, poor fit]

Next part:

Row | Compound | Potency | activity change, negative = inhibition
23 | Cc1ccc(-n2c(SCC(=O)N3CCCCC3)nc(O)c(Cc3ccccc3)c2=O)cc1 | inconclusive: 1 µM [inhibitor, full curve] | 
24 | CCN1CCN(C(=O)c2ccc3c(c2)N(Cc2ccccc2F)C(=O)c2ccccc2S3(=O)=O)CC1 | inconclusive: 50.1 µM [inhibitor, partial curve] | 
25 | Cc1ccc(CC(=S)N2CCOCC2)cc1 | inconclusive: 79.4 µM [inhibitor, partial curve, poor fit] | 
26 | CCCOc1ccc(-c2c(=O)n(OCC(=O)OCC)c3ccccc3[n+]2[O-])cc1 | inconclusive: 126 µM [inhibitor, single point] | 
27 | CC(C)(C)NC(=O)CN(Cc1cccnc1)C(=O)c1csnn1 | inconclusive: 56.2 µM [inhibitor, partial curve, poor fit] | 
28 | CCCCCn1nc(C(=O)N(CC)Cc2nc3ccccc3c(=O)[nH]2)c2ccccc2c1=O | inconclusive: 112 µM [inhibitor, single point] | 
29 | CCSc1ccc(-c2cc(NC=O)c3ncc(-c4cccc(C(=O)NCCN(C)C)c4)n3c2)cc1 | inconclusive: 44.7 µM [inhibitor, partial curve, poor fit] | 
30 | COc1cccc(C(=O)/C(C#N)=C\c2ccc(OC(F)F)c(OC)c2)c1 | inconclusive: 31.6 µM [inhibitor, partial curve, poor fit] | 
31 | O=C(NCc1ccco1)Nc1nnc([C@H]2C[C@H](O)[C@@H](CO)O2)s1 | inconclusive: 20 µM [inhibitor, full curve, poor fit] | 
32 | O=C(c1ccccc1)c1ccc(OCCCCN2CCCCC2)cc1 | inconclusive: 1.26 µM [inhibitor, full curve, poor fit] | 
33 | O=C(c1[nH]ncc1[N+](=O)[O-])N1CCOCC1 | inconclusive: 50.1 µM [inhibitor, partial curve, poor fit] | 
34 | COc1ccc(C(NC(=O)Cn2c(=O)c3c(ncn3C)n(C)c2=O)C(C)C)cc1 (stereo unspecified) | inconclusive: 44.7 µM [inhibitor, partial curve, poor fit] | 
35 | O=C1CC(=O)N(C2CCCCC2)C(=O)N1c1ccccc1S(=O)(=O)Oc1ccccc1 | inconclusive: 15.8 µM [inhibitor, partial curve] | 
36 | COc1cc(Br)cc(/C=C/c2ccc3cccc(O)c3n2)c1O | inconclusive: 39.8 µM [inhibitor, partial curve] | 
37 | COc1ccccc1NC(=O)C(C)OC(=O)c1cc2ccccc2[nH]1 (stereo unspecified) | inconclusive: 31.6 µM [inhibitor, single point] | 
38 | Cc1ccc(S(=O)(=O)NCCN2CCNC2=O)cc1 | inconclusive: 100 µM [inhibitor, partial curve, poor fit] | 
39 | O=C(Nc1c(NCc2ccccc2)c2ccccc2oc1=O)c1ccc(Br)cc1 | inactive | 
40 | O=C(CSc1nnc(Cc2ccccc2)n1Cc1ccccc1)NCc1ccco1 | inactive | 
41 | CCCn1cnnc1CNC(=O)[C@H]1O[C@@H](n2ccc(N)nc2=O)[C@H](O)[C@@H]1O | inconclusive: 112 µM [inhibitor, single point] | 
42 | O=C(NCC1(N2CCCCC2)CCCCC1)c1ccc(NS(=O)(=O)c2ccccc2)cc1 | inconclusive: 35.5 µM [inhibitor, partial curve, poor fit] | 
43 | COc1cccc(C(=O)Nc2ccc(C3(C)CC=NO3)cc2)c1 (stereo unspecified) | inactive | 
44 | O=[N+]([O-])c1ccc(NC(=S)NCCc2ccc(F)cc2)cc1 | inconclusive: 50.1 µM [inhibitor, partial curve, poor fit] | 

Row | Compound | Potency | activity change, negative = inhibition
45 | O=C1CCCC(O)=C1Sc1cc(Cl)c(Cl)cc1Cl | active: 39.8 µM | 
46 | Cc1cc(Br)ccc1OCCNCc1ccccc1 | active: 6.31 µM | 
47 | CC(C)c1ccccc1-n1cc[nH]c1=S | inconclusive: 89.1 µM [inhibitor, single point] | 
48 | O=C(NNS(=O)(=O)c1ccc([N+](=O)[O-])cc1)c1cnn(-c2ccccc2)c1-n1cccc1 |  | inconclusive: -33.4% [inhibitor]
49 | Cc1ccccc1NCC(=O)c1ccc(Br)cc1 | inconclusive: 39.8 µM [inhibitor, partial curve] | 
50 | Cc1cc2cc(CCNS(=O)(=O)c3ccc(F)cc3)c(=O)[nH]c2cc1C | inconclusive: 28.2 µM [inhibitor, partial curve] | 
51 | CCCC(=O)Nc1ccc2c(c1)nc(CN1CCN(C(=O)OCC)CC1)n2C | inactive | 
52 | CC(NC(=O)CSCc1cccs1)C1CCCO1 (stereo unspecified) | inconclusive: 2.82 µM [inhibitor, full curve, poor fit] | 
53 | Cc1ccc(NC(=O)CN2C(=O)COc3ccc(S(=O)(=O)N4CCOCC4)cc32)c(Cl)c1 |  | inconclusive: -30.1% [inhibitor]
54 | COC(=O)C(C)Sc1nc(N)c(NC(=O)c2ccco2)c(=O)[nH]1 (stereo unspecified) | inconclusive: 112 µM [inhibitor, single point] | 
55 | Cc1ccccc1CNC(=O)Cn1cc2c(n1)-c1c(oc(C(=O)N3CCCC3)c1C)CC2 | inactive | 
56 | Cc1cc(NS(=O)(=O)c2ccc(NC(=S)NC(=O)c3ccc(F)cc3)cc2)no1 | active: 25.1 µM | 
57 | COc1ccccc1NC(=S)N(Cc1ccc(Cl)cc1)CC1CCC(C(=O)O)CC1 (stereo unspecified) | inconclusive: 141 µM [inhibitor, partial curve, poor fit] | 
58 | Cc1cc(=O)[nH]c(SCC(=O)NC2CCCCCCC2)n1 | inactive | 
59 | CC1(Oc2cccc(Cl)c2)CCN(Cc2ccc(OC(F)(F)F)cc2)C1 (stereo unspecified) | inconclusive: 15.8 µM [inhibitor, partial curve] | 
60 | Cc1ccc2c(COC(=O)C3=NN(C)C(=O)CC3)cc(=O)oc2c1 |  | inconclusive: -37% [inhibitor]
61 | O=C(CSc1nnc(C2CC2)n1Cc1ccco1)NCC(F)(F)F | inactive | 
62 | O=C(O)C[C@@H]1CCN(C(=O)NC2CCCCC2)C[C@@H]1CCN1CCN(c2ccc(F)cc2)CC1 | inactive | 
63 | O=C(CNC(=O)c1ccccc1)N/N=C/c1ccc([N+](=O)[O-])s1 | inconclusive: 112 µM [inhibitor, single point] | 
64 | O=C(NNc1nc(-c2ccccc2)cs1)c1ccccc1 | inactive | 
65 | O=C(COc1ccccc1)N1CCC2(CC1)CC(N(C(=O)c1ccccc1)C1CC1)CCO2 (stereo unspecified) | inactive | 
66 | Cc1cccc(N=C2Sc3nc4c(C)c(C)ccc4cc3CN2CCN2CCOCC2)c1 | inconclusive: 31.6 µM [inhibitor, single point] | 

Complete entries, looked up by structure.
Cc1ccc2c(COC(=O)C3=NN(C)C(=O)CC3)cc(=O)oc2c1 is listed as activity change, negative = inhibition: inconclusive: -37% [inhibitor]
CC1(Oc2cccc(Cl)c2)CCN(Cc2ccc(OC(F)(F)F)cc2)C1 (stereo unspecified) is listed as Potency: inconclusive: 15.8 µM [inhibitor, partial curve]
